In publication doi:10.1101/2021.05.11.443692:
Results are given in words; binding and its absence hold for the method and conditions named. Some results given as binding are weak or reduced against the parent protein; the word gives no strength. Blank lines part the entries; values can stand above or below the binder they belong to.

What was measured:
PNPase (E. coli) = PNPase (E. coli) (UniProt P05055); test: two-hybrid
YicC (E. coli) = YicC (E. coli) (UniProt P23839); test: two-hybrid

binding (PNPase (E. coli)): binds
B1: PNPase (enzyme, UniProt P05055 1-711)
chain: MLNPIVRKFQYGQHTVTLETGMMARQATAAVMVSMDDTAVFVTVVGQKKAKPGQDFFPLTVNYQERTYAAGRIPGSFFRREGRPSEGETLIARLIDRPIRPLFPEGFVNEVQVIATVVSVNPQVNPDIVAMIGASAALSLSGIPFNGPIGAARVGYINDQYVLNPTQDELKESKLDLVVAGTEAAVLMVESEAQLLSEDQMLGAVVFGHEQQQVVIQNINELVKEAGKPRWDWQPEPVNEALNARVAALAEARLSDAYRITDKQERYAQVDVIKSETIATLLAEDETLDENELGEILHAIEKNVVRSRVLAGEPRIDGREKDMIRGLDVRTGVLPRTHGSALFTRGETQALVTATLGTARDAQVLDELMGERTDTFLFHYNFPPYSVGETGMVGSPKRREIGHGRLAKRGVLAVMPDMDKFPYTVRVVSEITESNGSSSMASVCGASLALMDAGVPIKAAVAGIAMGLVKEGDNYVVLSDILGDEDHLGDMDFKVAGSRDGISALQMDIKIEGITKEIMQVALNQAKGARLHILGVMEQAINAPRGDISEFAPRIHTIKINPDKIKDVIGKGGSVIRALTEETGTTIEIEDDGTVKIAATDGEKAKHAIRRIEEITAEIEVGRVYTGKVTRIVDFGAFVAIGGGKEGLVHISQIADKRVEKVTDYLQMGQEVPVKVLEVDRQGRIRLSIKEATEQSQPAAAPEAPAAEQGE

binding (YicC (E. coli)): binds
B2: YicC (protein, UniProt P23839 1-287)
chain: MIRSMTAYARREIKGEWGSATWEMRSVNQRYLETYFRLPEQFRSLEPVVRERIRSRLTRGKVECTLRYEPDVSAQGELILNEKLAKQLVTAANWVKMQSDEGEINPVDILRWPGVMAAQEQDLDAIAAEILAALDGTLDDFIVARETEGQALKALIEQRLEGVTAEVVKVRSHMPEILQWQRERLVAKLEDAQVQLENNRLEQELVLLAQRIDVAEELDRLEAHVKETYNILKKKEAVGRRLDFMMQEFNRESNTLASKSINAEVTNSAIELKVLIEQMREQIQNIE
